# These are yes or no findings as the source states them, for the method shown. Some entries that bind do so weakly or less than the wild type.
# Amino acid sequences for entries named in this document (tags omitted). A change or cut given only in a name is not applied to a line headed by its entry. Residues count along the entry.
# UniProt Q9CAJ0, residues 23-511: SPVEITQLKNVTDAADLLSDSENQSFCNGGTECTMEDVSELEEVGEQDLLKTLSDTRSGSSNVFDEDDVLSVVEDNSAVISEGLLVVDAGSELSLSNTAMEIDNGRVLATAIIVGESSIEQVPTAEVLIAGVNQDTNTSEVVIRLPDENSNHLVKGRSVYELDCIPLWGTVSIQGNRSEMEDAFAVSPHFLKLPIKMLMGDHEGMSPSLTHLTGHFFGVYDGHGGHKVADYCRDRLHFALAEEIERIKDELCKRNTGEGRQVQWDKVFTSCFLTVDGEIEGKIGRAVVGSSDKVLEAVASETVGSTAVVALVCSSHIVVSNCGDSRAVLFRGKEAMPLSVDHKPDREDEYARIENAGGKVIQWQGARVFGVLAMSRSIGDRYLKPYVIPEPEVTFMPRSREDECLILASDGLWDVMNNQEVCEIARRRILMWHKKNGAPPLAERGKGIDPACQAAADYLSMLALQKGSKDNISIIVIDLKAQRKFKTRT
# UniProt O49686: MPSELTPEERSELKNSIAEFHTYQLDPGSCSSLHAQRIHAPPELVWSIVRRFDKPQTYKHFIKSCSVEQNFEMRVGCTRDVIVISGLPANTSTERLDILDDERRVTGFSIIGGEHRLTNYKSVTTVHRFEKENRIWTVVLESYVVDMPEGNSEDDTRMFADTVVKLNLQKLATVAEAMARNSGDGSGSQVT
# Molecular target: HAB1 (Homology to ABI1), type 2 protein phosphatase (PP2C) (UniProt Q9CAJ0)
# Experiment: yeast two-hybrid, ABA-dependent
row,binding,Substance
1,binds,wild-type PYR1 (from UniProt O49686 1-191) (receptor)

# Molecular target: HAB1 (Homology to ABI1), type 2 protein phosphatase (PP2C) (UniProt Q9CAJ0)
# Experiment: yeast two-hybrid with HAB1, X-gal staining at low ABA; grade = strength of hypersensitivity
row,Substance,binding
1,PYR1 K170I (from UniProt O49686 1-191) (receptor),binds
2,PYR1 L166F (from UniProt O49686 1-191) (receptor),binds
3,PYR1 K170A (from UniProt O49686 1-191) (receptor),binds
4,PYR1 D154M (from UniProt O49686 1-191) (receptor),binds
5,PYR1 K63Q (from UniProt O49686 1-191) (receptor),binds
6,PYR1 M158N (from UniProt O49686 1-191) (receptor),binds
7,PYR1 K170Y (from UniProt O49686 1-191) (receptor),binds
8,PYR1 L166T (from UniProt O49686 1-191) (receptor),binds
9,PYR1 L166M (from UniProt O49686 1-191) (receptor),binds
10,PYR1 K170S (from UniProt O49686 1-191) (receptor),binds
11,PYR1 L166S (from UniProt O49686 1-191) (receptor),binds
12,PYR1 I82K (from UniProt O49686 1-191) (receptor),binds
13,PYR1 D154F (from UniProt O49686 1-191) (receptor),binds
14,PYR1 D154Q (from UniProt O49686 1-191) (receptor),binds
15,PYR1 L166A (from UniProt O49686 1-191) (receptor),binds
16,PYR1 K170R (from UniProt O49686 1-191) (receptor),binds
17,PYR1 K170Q (from UniProt O49686 1-191) (receptor),binds
18,PYR1 D154H (from UniProt O49686 1-191) (receptor),binds
19,PYR1 L166P (from UniProt O49686 1-191) (receptor),binds

row,Substance,binding
1,PYR1 T162H (from UniProt O49686 1-191) (receptor),binds
2,PYR1 T162M (from UniProt O49686 1-191) (receptor),binds
3,PYR1 T162W (from UniProt O49686 1-191) (receptor),binds
4,PYR1 L166Q (from UniProt O49686 1-191) (receptor),binds
5,PYR1 D154W (from UniProt O49686 1-191) (receptor),binds
6,PYR1 I84N (from UniProt O49686 1-191) (receptor),binds
7,PYR1 M158G (from UniProt O49686 1-191) (receptor),binds
8,PYR1 K170T (from UniProt O49686 1-191) (receptor),binds
9,PYR1 M158D (from UniProt O49686 1-191) (receptor),binds
10,PYR1 L166E (from UniProt O49686 1-191) (receptor),binds
11,PYR1 K170F (from UniProt O49686 1-191) (receptor),binds
12,PYR1 D154K (from UniProt O49686 1-191) (receptor),binds
13,PYR1 L166H (from UniProt O49686 1-191) (receptor),binds
14,PYR1 M158I (from UniProt O49686 1-191) (receptor),binds
15,PYR1 L166G (from UniProt O49686 1-191) (receptor),binds
16,PYR1 M158S (from UniProt O49686 1-191) (receptor),binds
17,PYR1 I82F (from UniProt O49686 1-191) (receptor),binds
18,PYR1 I84S (from UniProt O49686 1-191) (receptor),binds

# The next lines start with the values.
row,binding,Substance
1,binds,PYR1 M158V (from UniProt O49686 1-191) (receptor)
2,binds,PYR1 I82S (from UniProt O49686 1-191) (receptor)
3,binds,PYR1 K170G (from UniProt O49686 1-191) (receptor)
4,binds,PYR1 L166N (from UniProt O49686 1-191) (receptor)
5,binds,PYR1 L166R (from UniProt O49686 1-191) (receptor)
6,binds,PYR1 K63D (from UniProt O49686 1-191) (receptor)
7,binds,PYR1 T162Y (from UniProt O49686 1-191) (receptor)
8,binds,PYR1 I82A (from UniProt O49686 1-191) (receptor)
9,binds,PYR1 M158H (from UniProt O49686 1-191) (receptor)
10,binds,PYR1 I84A (from UniProt O49686 1-191) (receptor)
11,binds,PYR1 M158A (from UniProt O49686 1-191) (receptor)
12,binds,PYR1 I84D (from UniProt O49686 1-191) (receptor)
13,binds,PYR1 D154G (from UniProt O49686 1-191) (receptor)
14,binds,PYR1 K63E (from UniProt O49686 1-191) (receptor)
15,binds,PYR1 K170H (from UniProt O49686 1-191) (receptor)
16,binds,PYR1 I84R (from UniProt O49686 1-191) (receptor)
17,binds,PYR1 K170N (from UniProt O49686 1-191) (receptor)
18,binds,PYR1 K170M (from UniProt O49686 1-191) (receptor)
19,binds,PYR1 I84T (from UniProt O49686 1-191) (receptor)
20,binds,PYR1 K170E (from UniProt O49686 1-191) (receptor)
21,binds,PYR1 T162K (from UniProt O49686 1-191) (receptor)
22,binds,PYR1 K170V (from UniProt O49686 1-191) (receptor)
23,binds,PYR1 T162L (from UniProt O49686 1-191) (receptor)
24,binds,PYR1 K170D (from UniProt O49686 1-191) (receptor)
25,binds,PYR1 L166K (from UniProt O49686 1-191) (receptor)
26,binds,PYR1 L166W (from UniProt O49686 1-191) (receptor)
27,binds,PYR1 L166Y (from UniProt O49686 1-191) (receptor)
28,binds,PYR1 M158W (from UniProt O49686 1-191) (receptor)
29,binds,PYR1 D154R (from UniProt O49686 1-191) (receptor)
30,binds,PYR1 K170C (from UniProt O49686 1-191) (receptor)

# — patent US20190359999A1
